Results from paper PMC5982823, “The Pseudokinase Domain of Saccharomyces cerevisiae Tra1 Is Required for Nuclear Localization and Incorporation into the SAGA and NuA4 Complexes” (G3: Genes|Genomes|Genetics, 2018).
Results are given in words; binding and its absence hold for the method and conditions named. Binding seen in cells or lysates may run through a third protein. Some results given as binding are weak or reduced against the parent protein; the word gives no strength.

By UniProt entry, the sequences of proteins in these tests, tags left out. Where a name states a change or a piece, a line headed by the entry shows the natural chain unless it says otherwise.
UniProt P38811: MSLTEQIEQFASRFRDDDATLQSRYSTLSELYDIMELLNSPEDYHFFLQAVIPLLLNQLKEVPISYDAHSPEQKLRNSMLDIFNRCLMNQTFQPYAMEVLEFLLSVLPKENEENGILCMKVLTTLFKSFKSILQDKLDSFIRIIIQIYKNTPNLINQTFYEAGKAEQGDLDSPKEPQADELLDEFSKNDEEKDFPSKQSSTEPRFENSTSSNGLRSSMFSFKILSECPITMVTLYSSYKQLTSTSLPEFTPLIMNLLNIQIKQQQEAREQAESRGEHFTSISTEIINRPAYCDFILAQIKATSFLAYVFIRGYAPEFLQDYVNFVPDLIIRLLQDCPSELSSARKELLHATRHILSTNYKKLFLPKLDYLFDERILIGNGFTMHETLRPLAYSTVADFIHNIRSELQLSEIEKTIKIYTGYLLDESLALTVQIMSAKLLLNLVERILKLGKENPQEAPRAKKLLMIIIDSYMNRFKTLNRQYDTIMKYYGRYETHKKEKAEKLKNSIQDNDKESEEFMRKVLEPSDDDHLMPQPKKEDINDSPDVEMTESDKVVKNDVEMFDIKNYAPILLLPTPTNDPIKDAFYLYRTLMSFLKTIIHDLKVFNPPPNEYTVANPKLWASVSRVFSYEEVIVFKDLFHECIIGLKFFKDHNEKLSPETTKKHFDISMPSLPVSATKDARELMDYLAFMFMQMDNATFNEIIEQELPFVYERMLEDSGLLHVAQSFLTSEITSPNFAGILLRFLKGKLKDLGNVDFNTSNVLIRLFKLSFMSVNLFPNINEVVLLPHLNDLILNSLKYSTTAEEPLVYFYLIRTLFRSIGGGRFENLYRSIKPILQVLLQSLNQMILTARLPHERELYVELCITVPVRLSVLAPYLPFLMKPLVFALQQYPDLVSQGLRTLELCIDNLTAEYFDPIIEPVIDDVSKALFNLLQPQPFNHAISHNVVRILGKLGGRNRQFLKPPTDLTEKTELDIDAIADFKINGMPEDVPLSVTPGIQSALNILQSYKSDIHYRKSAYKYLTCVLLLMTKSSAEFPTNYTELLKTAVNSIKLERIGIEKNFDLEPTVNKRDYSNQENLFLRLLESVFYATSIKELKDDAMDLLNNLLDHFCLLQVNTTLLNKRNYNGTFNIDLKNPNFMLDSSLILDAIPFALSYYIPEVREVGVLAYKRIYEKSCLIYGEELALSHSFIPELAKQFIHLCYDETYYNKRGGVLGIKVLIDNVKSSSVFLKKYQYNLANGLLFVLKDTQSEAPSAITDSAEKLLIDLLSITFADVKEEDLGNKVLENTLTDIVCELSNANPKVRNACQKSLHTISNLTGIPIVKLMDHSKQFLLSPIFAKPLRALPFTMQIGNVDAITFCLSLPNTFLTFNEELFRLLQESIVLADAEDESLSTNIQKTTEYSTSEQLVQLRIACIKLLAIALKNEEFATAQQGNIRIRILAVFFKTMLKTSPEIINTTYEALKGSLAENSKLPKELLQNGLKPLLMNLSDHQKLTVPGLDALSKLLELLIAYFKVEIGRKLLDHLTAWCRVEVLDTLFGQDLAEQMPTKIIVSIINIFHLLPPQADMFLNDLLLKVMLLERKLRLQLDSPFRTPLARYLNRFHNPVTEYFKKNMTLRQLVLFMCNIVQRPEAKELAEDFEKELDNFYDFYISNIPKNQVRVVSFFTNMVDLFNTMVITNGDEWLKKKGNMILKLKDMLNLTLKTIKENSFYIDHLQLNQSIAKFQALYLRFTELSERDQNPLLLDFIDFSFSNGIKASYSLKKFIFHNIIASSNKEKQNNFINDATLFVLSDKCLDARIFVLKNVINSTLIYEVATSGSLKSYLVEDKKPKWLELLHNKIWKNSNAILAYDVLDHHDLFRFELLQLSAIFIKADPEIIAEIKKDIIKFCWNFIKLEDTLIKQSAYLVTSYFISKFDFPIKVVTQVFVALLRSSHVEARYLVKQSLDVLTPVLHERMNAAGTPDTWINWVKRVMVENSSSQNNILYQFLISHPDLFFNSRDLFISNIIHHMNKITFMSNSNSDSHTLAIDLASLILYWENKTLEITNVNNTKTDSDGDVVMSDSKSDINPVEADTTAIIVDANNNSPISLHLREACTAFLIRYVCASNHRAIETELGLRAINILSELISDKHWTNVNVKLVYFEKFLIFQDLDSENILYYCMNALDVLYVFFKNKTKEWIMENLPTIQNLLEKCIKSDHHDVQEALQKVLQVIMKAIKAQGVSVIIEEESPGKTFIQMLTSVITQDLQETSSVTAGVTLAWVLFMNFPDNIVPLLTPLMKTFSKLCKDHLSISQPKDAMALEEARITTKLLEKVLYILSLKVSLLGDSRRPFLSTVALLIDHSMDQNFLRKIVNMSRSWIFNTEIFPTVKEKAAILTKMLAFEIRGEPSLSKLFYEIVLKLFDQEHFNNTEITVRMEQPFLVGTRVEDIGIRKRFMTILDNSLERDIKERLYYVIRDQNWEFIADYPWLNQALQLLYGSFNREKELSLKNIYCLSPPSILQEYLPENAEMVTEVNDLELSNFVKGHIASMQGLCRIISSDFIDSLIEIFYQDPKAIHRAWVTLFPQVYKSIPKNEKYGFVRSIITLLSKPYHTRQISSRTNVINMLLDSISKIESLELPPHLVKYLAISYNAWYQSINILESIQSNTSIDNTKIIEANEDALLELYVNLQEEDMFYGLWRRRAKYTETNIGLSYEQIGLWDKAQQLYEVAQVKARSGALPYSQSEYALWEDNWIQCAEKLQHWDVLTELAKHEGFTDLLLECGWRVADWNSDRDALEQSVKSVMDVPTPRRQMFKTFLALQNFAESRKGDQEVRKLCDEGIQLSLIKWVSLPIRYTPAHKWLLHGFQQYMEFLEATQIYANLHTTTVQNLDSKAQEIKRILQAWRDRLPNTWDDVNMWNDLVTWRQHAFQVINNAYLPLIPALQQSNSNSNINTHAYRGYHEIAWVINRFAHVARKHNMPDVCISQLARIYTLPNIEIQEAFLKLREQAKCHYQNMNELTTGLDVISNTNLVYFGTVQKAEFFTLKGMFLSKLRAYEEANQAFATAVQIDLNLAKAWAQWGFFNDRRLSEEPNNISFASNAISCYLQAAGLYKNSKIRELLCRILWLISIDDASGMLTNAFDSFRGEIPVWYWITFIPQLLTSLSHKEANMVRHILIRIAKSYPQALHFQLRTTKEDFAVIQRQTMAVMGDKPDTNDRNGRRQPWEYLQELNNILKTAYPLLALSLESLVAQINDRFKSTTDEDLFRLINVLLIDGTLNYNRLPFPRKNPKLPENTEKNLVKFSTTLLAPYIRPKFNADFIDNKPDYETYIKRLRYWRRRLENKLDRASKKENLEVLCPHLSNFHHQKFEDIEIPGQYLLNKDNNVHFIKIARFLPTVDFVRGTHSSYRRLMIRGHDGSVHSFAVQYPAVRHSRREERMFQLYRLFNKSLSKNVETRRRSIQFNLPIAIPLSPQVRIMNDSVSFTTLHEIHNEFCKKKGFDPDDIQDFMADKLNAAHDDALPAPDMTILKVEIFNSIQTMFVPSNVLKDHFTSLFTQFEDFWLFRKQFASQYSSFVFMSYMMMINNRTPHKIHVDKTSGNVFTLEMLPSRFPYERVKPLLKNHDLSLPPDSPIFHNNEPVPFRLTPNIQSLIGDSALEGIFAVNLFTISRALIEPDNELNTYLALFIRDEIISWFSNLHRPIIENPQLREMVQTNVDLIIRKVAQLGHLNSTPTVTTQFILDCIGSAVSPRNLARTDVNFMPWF
UniProt P35177: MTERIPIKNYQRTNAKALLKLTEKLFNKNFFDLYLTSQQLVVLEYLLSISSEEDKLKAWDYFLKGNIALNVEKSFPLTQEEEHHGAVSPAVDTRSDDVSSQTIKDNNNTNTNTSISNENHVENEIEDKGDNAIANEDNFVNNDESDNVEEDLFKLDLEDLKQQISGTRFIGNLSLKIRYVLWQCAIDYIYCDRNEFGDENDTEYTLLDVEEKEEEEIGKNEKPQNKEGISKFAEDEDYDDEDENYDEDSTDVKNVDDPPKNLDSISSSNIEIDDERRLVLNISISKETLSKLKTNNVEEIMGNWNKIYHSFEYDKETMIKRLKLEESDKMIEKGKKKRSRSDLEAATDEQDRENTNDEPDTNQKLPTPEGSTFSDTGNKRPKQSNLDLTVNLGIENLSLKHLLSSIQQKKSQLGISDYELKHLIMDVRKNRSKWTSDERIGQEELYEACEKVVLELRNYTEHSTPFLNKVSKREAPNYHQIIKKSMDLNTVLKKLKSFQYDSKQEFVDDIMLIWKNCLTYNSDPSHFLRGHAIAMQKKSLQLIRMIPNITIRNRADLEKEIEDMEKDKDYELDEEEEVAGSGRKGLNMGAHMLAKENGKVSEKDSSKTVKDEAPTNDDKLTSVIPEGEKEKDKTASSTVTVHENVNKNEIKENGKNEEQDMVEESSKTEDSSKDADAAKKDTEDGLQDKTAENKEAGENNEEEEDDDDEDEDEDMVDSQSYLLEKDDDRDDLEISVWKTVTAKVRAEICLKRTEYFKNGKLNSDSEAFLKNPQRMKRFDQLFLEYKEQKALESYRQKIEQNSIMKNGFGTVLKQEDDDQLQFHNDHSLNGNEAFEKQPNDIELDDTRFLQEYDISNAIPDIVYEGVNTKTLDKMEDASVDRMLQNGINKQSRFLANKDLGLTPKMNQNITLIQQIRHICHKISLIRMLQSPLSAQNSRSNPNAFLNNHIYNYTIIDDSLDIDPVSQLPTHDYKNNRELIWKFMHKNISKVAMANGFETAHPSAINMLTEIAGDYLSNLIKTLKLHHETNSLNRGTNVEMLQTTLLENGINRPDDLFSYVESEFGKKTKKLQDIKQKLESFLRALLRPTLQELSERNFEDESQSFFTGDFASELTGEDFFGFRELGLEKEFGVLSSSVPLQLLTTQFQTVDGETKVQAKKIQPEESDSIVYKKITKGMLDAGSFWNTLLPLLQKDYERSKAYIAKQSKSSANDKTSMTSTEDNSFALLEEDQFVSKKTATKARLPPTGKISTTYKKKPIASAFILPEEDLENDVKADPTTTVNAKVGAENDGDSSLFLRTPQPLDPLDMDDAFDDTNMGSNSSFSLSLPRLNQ

How the values were obtained:
[1] = target: Flag^5-tagged Tra1 (wild type) (S. cerevisiae) (UniProt P38811); assay: co-IP; Flag^5-Tra1 or Flag^5-Tra1 Q3 pulled down with anti-Flag M2 magnetic beads from 2 mg crude lysate of heterozygous diploid strains; myc^9-Spt7 detected with anti-myc antibody
[2] = target: Flag^5-tagged Tra1 Q3 (R3389Q, R3390Q, R3456Q) (S. cerevisiae) (UniProt P38811); assay: as above

myc^9-tagged Spt7, full-length form (Spt7^SAGA) (from UniProt P35177 1-1332)
binding [1]: binds
binding [2]: binds
